# According to PubChem BioAssay AID445 (National Center for Advancing Translational Sciences (NCATS), 2006):
# This is one part of the list. Shown are side measurements of this screen, not its main read-out; they come without a call. Compounds called inactive in the main read-out are mostly missing here. Words in brackets tell the shape of the fitted curve; partial curves, single points and poor fits give uncertain potencies.
# Assay: IkB Signaling
# Conditions: ABC-DLBCL IkBa-CBG/CBR dual luciferase ratio (green luciferase fused to IkBa over red control in OCI-Ly3 lymphoma cells), 4 h
# How it was run: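 Curves were fitted separately to fusion (green), unfused (red) and ratio luminescence, then classed by r2, magnitude and activity. Cells: OCI-Ly3, 4 h compound plus doxycycline at 37C; 10 uM MG-132 defined full response.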
# [1] = measured here: control luc red channel unless noted
smiles,measurement,setting,value
CCOC(=O)c1cc(C#N)c(NCc2ccccc2)nc1C,AC50,[1],"3.98 µM [rising, partial curve]"
Cc1oc(-c2ccccc2F)nc1CS(=O)(=O)CC(=O)N1CCN(c2ccccc2)CC1,AC50,[1],"20 µM [falling, partial curve]"
O=C(CSc1nc(NS(=O)(=O)c2ccccc2)cc(=O)[nH]1)Nc1ccc(F)cc1,AC50,[1],"12.6 µM [falling, partial curve]"
COc1cc(/C=C/C(=O)CC(=O)/C=C/c2ccc(O)c(OC)c2)ccc1O,AC50,measured here: IkB-luc green channel,"3.98 µM [rising, partial curve]"
same,AC50,measured here: control luc red channel,"12.6 µM [falling, partial curve]"
COc1ccc(-c2[nH]c(-c3ccc(O)cc3)nc2-c2ccccc2)cc1,AC50,[1],"3.16 µM [falling, partial curve]"
C=CCOC(=O)c1[nH]c2c(c1C)C(=O)CC(c1ccco1)C2 (stereo not given),AC50,[1],"631 nM [rising, full curve] [measured here: IkB-luc green channel]"
CC(CNC(=O)c1ccc2c(c1)nc1n2CCCCC1)c1ccccc1 (stereo not given),AC50,[1],"15.8 µM [falling, single point]"
COC(=O)c1nn(-c2ccc(-c3ccccc3)cc2)cc1O,AC50,[1],"15.8 µM [falling, single point]"
COc1ccccc1-c1nn2c(=O)cc(CN3CCN(C(=O)Nc4ccc(C)cc4Cl)CC3)nc2s1,AC50,[1],"0.0501 µM [falling, full curve]"
Cc1ccc(C2C(=O)N(C3CCC(C)CC3)CC(=O)N2C2CCCC2)cc1 (stereo not given),AC50,[1],"20 µM [falling, single point]"
Cc1cc(NS(=O)(=O)c2ccc(NC(=O)COc3c(C)ccc(C)c3C)cc2)nc(C)n1,AC50,[1],"15.8 µM [falling, partial curve]"
CCS(=O)(=O)N1CCc2cc(C(=O)Nc3ccc(Br)cc3F)ccc21,AC50,[1],"5.01 µM [falling, partial curve]"
CCc1cccc(C)c1NC(=O)c1ccc2c(c1)CCN2S(=O)(=O)c1ccc(Cl)cc1,AC50,[1],"10 µM [falling, partial curve]"
CC1CCN(C(=O)CSc2nnc(-c3cc4ccccc4cc3O)n2Cc2ccco2)CC1,AC50,[1],"31.6 µM [falling, partial curve]"
COc1ccc(N(Cc2cccs2)C(=O)c2ccco2)cc1,AC50,[1],"31.6 µM [falling, partial curve]"
Cc1cc(C)cc(NC(=O)CCc2c(C)nc3nc(CNC(=O)c4cccc(F)c4)nn3c2C)c1,AC50,[1],"20 µM [falling, single point]"
COc1cccc(CN2C(=O)c3ccccc3Sc3ccc(C(=O)N(C)Cc4ccccc4)cc32)c1,AC50,[1],"0.398 µM [falling, partial curve]"
CCCCNC(=O)CSc1nc2ccccc2nc1Cc1ccc(C)cc1,AC50,[1],"7.94 µM [rising, single point]"
C=CC1=C(C)C2=NC1=CC1=NC(=CC3=NC(=CC4=NC(=C2)C(C)=C4CCC(=O)O)C(CCC(=O)O)=C3C)C(C=C)=C1C.[Zn],AC50,[1],"39.8 µM [rising, partial curve]"
COc1cccc2cc(-c3nc(Nc4cccc(C)c4)sc3C)c(=O)oc12,AC50,[1],"25.1 µM [falling, partial curve, poor fit]"
O=C(c1cccs1)c1cn(CCOc2ccccc2F)c2ccccc12,AC50,[1],"10 µM [falling, partial curve]"
CC(C)c1ccc(S(=O)(=O)c2nnn3c2nc(N2CCN(C)CC2)c2sccc23)cc1,AC50,[1],"39.8 µM [falling, single point]"
CC(=O)c1cccc(NC(=O)c2nc3ccccc3n(C)c2=O)c1,AC50,[1],"5.01 µM [falling, partial curve]"
CCOC(=O)c1ccccc1NC(=O)c1c2c(nc3ccccc13)C(=O)N(C1CCCCC1)C2,AC50,[1],"20 µM [falling, single point]"
CCOC(=O)C1CCCN(CC(=O)N2CCCc3c2c(=O)oc2ccc(OCc4ccccc4)cc32)C1 (stereo not given),AC50,[1],"31.6 µM [falling, partial curve]"
COc1cc(OC)cc(C(=O)Nc2cc(-c3nc4cc(Cl)ccc4o3)ccc2Cl)c1,AC50,[1],"2.51 µM [falling, full curve]"
CCc1ccc(NC(=O)c2sc3ncnc(N(C)C4CCCCC4)c3c2C)cc1,AC50,[1],"39.8 µM [falling, single point]"
CCn1c(-c2cc(Br)cc(OC)c2O)nc2cc(S(=O)(=O)N(C)C)ccc21,AC50,[1],"39.8 µM [falling, single point]"
COc1ccc(CNC(=O)Nc2ccc3c(c2)N(C)C(=O)c2ccccc2S3)cc1,AC50,[1],"20 µM [falling, partial curve]"
Cc1cc(-c2ccc(C)c(S(=O)(=O)NC(c3cccs3)C(C)C)c2)on1 (stereo not given),AC50,[1],"25.1 µM [falling, single point]"
O=C(Nc1ccccc1O)c1cc(S(=O)(=O)N2CCOCC2)c(Cl)cc1Cl,AC50,[1],"7.94 µM [falling, partial curve]"
CCOC(=O)Nc1nnc(CCc2ccccc2)s1,AC50,[1],"398 nM [rising, partial curve] [measured here: IkB-luc green channel]"
CCc1nnc(SCc2c(F)cccc2Cl)c2cc3sccc3n12,AC50,[1],"15.8 µM [falling, partial curve]"
CC1=C(C(=O)N2CCN(c3cc(C)ccc3C)CC2)C2(CCC(C)CC2)OC1=O (stereo not given),AC50,[1],"39.8 µM [falling, single point]"
COc1ccc(C(=O)Nc2nc3nc(C)c(Cc4ccccc4)c(=O)n3[nH]2)cc1OC,AC50,[1],"25.1 µM [falling, single point]"
CCCc1cc(=O)n2[nH]c(NC(=O)c3ccc(C(C)(C)C)cc3)nc2n1,AC50,[1],"25.1 µM [falling, partial curve]"
O=C(Nc1cccc(F)c1)C1CCCN1S(=O)(=O)c1cccc2cccnc12 (stereo not given),AC50,[1],"5.01 µM [falling, partial curve]"
Cc1cccc(CNS(=O)(=O)c2ccc(-c3cnc(C4CC4)o3)cc2)c1,AC50,[1],"20 µM [falling, partial curve]"
O=C(O)c1oc2ccc(Br)cc2c1-n1cccc1,AC50,[1],"25.1 µM [falling, partial curve]"

# Another view of some results above.
smiles	measurement	setting	value
CCOC(=O)c1cc(C#N)c(NCc2ccccc2)nc1C	AC50	[1]	3.98 µM [rising, partial curve]
COC(=O)c1nn(-c2ccc(-c3ccccc3)cc2)cc1O	AC50	[1]	15.8 µM [falling, single point]
CCn1c(-c2cc(Br)cc(OC)c2O)nc2cc(S(=O)(=O)N(C)C)ccc21	AC50	[1]	39.8 µM [falling, single point]
